# Literature values in patent publication US20260248735A1, “A METHOD FOR PREPARING MICROPARTICLES FOR DRUG DELIVERY” (Danmarks Tekniske Universitet, priority 2023, published 2026).
# At least one read-out could not be matched to a standard name with certainty.
# Details: as characterised by BCS class
row,Compound,permeability
1,COc1ccc2c(c1)c(CC(=O)O)c(C)n2C(=O)c1ccc(Cl)cc1 [indomethacin],high
2,calcitonin,low
